Test results reported in the supplement of paper PMC8728848.
The other results are listed elsewhere or left out.

Assays:
Assay in all cases: glycan array binding signal (z-score within array); higher = stronger binding
Conditions in all cases: glycan notation: IUPAC condensed, linker removed
Gal3S6S(b1-4)GlcNAc6S = target: Gal3S6S(b1-4)GlcNAc6S
Procedure, shortened: (§1)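 Glycan array data came from 3228 arrays in the Consortium for Functional Glycomics database, and only arrays with an available protein sequence were kept. Glycan names were put into IUPAC-condensed notation, and columns mapping to the same glycan were averaged. The binding signal is a within-array Z-score, averaged across arrays of one protein sequence run at different concentrations or buffers and across linkers. A negative Z-score can be read as non-binding.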

Gal4S(b1-4)GlcNAc = target: Gal4S(b1-4)GlcNAc
Procedure, shortened: as §1

Gal4S6S(b1-4)GlcNAc = target: Gal4S6S(b1-4)GlcNAc
Procedure, shortened: as §1

Gal6P(b1-4)GlcNAc = target: Gal6P(b1-4)GlcNAc
Procedure, shortened: as §1

Gal6S(b1-3)GlcNAc = target: Gal6S(b1-3)GlcNAc
Procedure, shortened: as §1

Gal6S(b1-3)GlcNAc6S = target: Gal6S(b1-3)GlcNAc6S
Procedure, shortened: as §1

Gal6S(b1-4)Glc = target: Gal6S(b1-4)Glc
Procedure, shortened: as §1

Gal6S(b1-4)Glc6S = target: Gal6S(b1-4)Glc6S
Procedure, shortened: as §1

Gal6S(b1-4)GlcNAc = target: Gal6S(b1-4)GlcNAc
Procedure, shortened: as §1

Gal6S(b1-4)GlcNAc6S = target: Gal6S(b1-4)GlcNAc6S
Procedure, shortened: as §1

GalNAc(a1-3)Gal = target: GalNAc(a1-3)Gal
Procedure, shortened: as §1

GalNAc(a1-3)GalNAc = target: GalNAc(a1-3)GalNAc
Procedure, shortened: as §1

[1] = target: GalNAc(a1-3)GalNAc(b1-3)Gal(a1-4)Gal(b1-4)Glc
Procedure, shortened: as §1

[2] = target: GalNAc(a1-3)GalNAc(b1-3)Gal(a1-4)Gal(b1-4)GlcNAc
Procedure, shortened: as §1

GalNAc(b1-3)Gal = target: GalNAc(b1-3)Gal
Procedure, shortened: as §1

[3] = target: GalNAc(b1-3)Gal(a1-4)Gal(b1-4)GlcNAc
Procedure, shortened: as §1

[4] = target: GalNAc(b1-3)Gal(a1-4)Gal(b1-4)GlcNAc(b1-3)Gal(b1-4)Glc
Procedure, shortened: as §1

[5] = target: GalNAc(b1-3)Gal(a1-6)Gal(b1-4)Glc
Procedure, shortened: as §1

GalNAc(b1-3)GalNAc = target: GalNAc(b1-3)GalNAc
Procedure, shortened: as §1

GalNAc(b1-3)GlcNAc = target: GalNAc(b1-3)GlcNAc
Procedure, shortened: as §1

GalNAc(b1-4)Gal(b1-4)Glc = target: GalNAc(b1-4)Gal(b1-4)Glc
Procedure, shortened: as §1

GalNAc(b1-4)GlcNAc = target: GalNAc(b1-4)GlcNAc
Procedure, shortened: as §1

[6] = target: GalNAc(b1-4)GlcNAc(b1-2)Man
Procedure, shortened: as §1

[7] = target: GalNAc(b1-4)GlcNAc(b1-2)Man(a1-3)[GalNAc(b1-4)GlcNAc(b1-2)Man(a1-6)]Man(b1-4)GlcNAc(b1-4)GlcNAc
Procedure, shortened: as §1

[8] = target: GalNAc(b1-4)GlcNAc(b1-3)GalNAc(b1-4)GlcNAc
Procedure, shortened: as §1

GalNAc(b1-4)GlcNAc6S = target: GalNAc(b1-4)GlcNAc6S
Procedure, shortened: as §1

GalNAc(b1-6)GalNAc = target: GalNAc(b1-6)GalNAc
Procedure, shortened: as §1

GalNAc3S(b1-4)GlcNAc = target: GalNAc3S(b1-4)GlcNAc
Procedure, shortened: as §1

GalNAc3S(b1-4)GlcNAc3S = target: GalNAc3S(b1-4)GlcNAc3S
Procedure, shortened: as §1

[9] = target: GalNAc3S(b1-4)[Fuc(a1-3)]GlcNAc
Procedure, shortened: as §1

GalNAc4S6S(b1-4)GlcNAc = target: GalNAc4S6S(b1-4)GlcNAc
Procedure, shortened: as §1

GalNAc6S(b1-4)GlcNAc = target: GalNAc6S(b1-4)GlcNAc
Procedure, shortened: as §1

Glc(a1-4)Glc = target: Glc(a1-4)Glc
Procedure, shortened: as §1

[10] = target: Glc(a1-4)Glc(a1-4)Glc(a1-4)Glc
Procedure, shortened: as §1

Glc(a1-6)Glc(a1-6)Glc = target: Glc(a1-6)Glc(a1-6)Glc
Procedure, shortened: as §1

[11] = target: Glc(a1-6)Glc(a1-6)Glc(a1-6)Glc
Procedure, shortened: as §1

Glc(b1-4)Glc = target: Glc(b1-4)Glc
Procedure, shortened: as §1

Glc(b1-6)Glc = target: Glc(b1-6)Glc
Procedure, shortened: as §1

B1: FliC (Clostridium difficile) (protein)
chain: MRVNTNVSALIANNQMGRNVNGQSKSMEKLSSGVRIKRAADDAAGLAISEKMRAQIKGLDQAGRNVQDGISVVQTAEGSLEETGNILQRMRTLSLQSANEINNTEEREKIADELTQLKDEIERISSSTEFNGKKLLDGTSSTIRLQVGASYGTNVSGTSNNNNEIKIQLVNTASIMASAGITTASIGSMKAGGTTGTDAAKTMVSSLDAALKSLNSSRAKLGAQQNRLESTQNNLNNTLENVTAAESRIRDTDVASEMVNLSKMNILVQASQSMLAQANQQPQGVLQLLG
Question: For B1, which “glycan array binding signal (z-score)” value (Gal3S6S(b1-4)GlcNAc6S) is on record?
Answer: -0.314

Question: What about the “glycan array binding signal (z-score)” value (Gal4S(b1-4)GlcNAc) of the same binder?
Answer: -0.21

Question: What about the “glycan array binding signal (z-score)” value (Gal4S6S(b1-4)GlcNAc) of the same binder?
Answer: -0.316

Question: What about the “glycan array binding signal (z-score)” value (Gal6P(b1-4)GlcNAc) of the same binder?
Answer: 0.321

Question: What about the “glycan array binding signal (z-score)” value (Gal6S(b1-3)GlcNAc) of the same binder?
Answer: -0.616

Question: And the “glycan array binding signal (z-score)” value (Gal6S(b1-3)GlcNAc6S)?
Answer: -0.654

Question: And the “glycan array binding signal (z-score)” value (Gal6S(b1-4)Glc)?
Answer: -0.452

Question: And the “glycan array binding signal (z-score)” value (Gal6S(b1-4)Glc6S)?
Answer: -0.24

Question: And the “glycan array binding signal (z-score)” value (Gal6S(b1-4)GlcNAc)?
Answer: 0.466

Question: And the “glycan array binding signal (z-score)” value (Gal6S(b1-4)GlcNAc6S)?
Answer: -0.398

Question: What about the “glycan array binding signal (z-score)” value (GalNAc(a1-3)Gal) of the same binder?
Answer: -0.317

Question: And the “glycan array binding signal (z-score)” value (GalNAc(a1-3)GalNAc)?
Answer: -0.286

Question: And the “glycan array binding signal (z-score)” value [1]?
Answer: -0.844

Question: What about the “glycan array binding signal (z-score)” value [2] of the same binder?
Answer: -0.681

Question: And the “glycan array binding signal (z-score)” value (GalNAc(b1-3)Gal)?
Answer: -0.175

Question: What about the “glycan array binding signal (z-score)” value [3] of the same binder?
Answer: -0.578

Question: And the “glycan array binding signal (z-score)” value [4]?
Answer: -0.375

Question: And the “glycan array binding signal (z-score)” value [5]?
Answer: -0.181

Question: And the “glycan array binding signal (z-score)” value (GalNAc(b1-3)GalNAc)?
Answer: -0.965

Question: And the “glycan array binding signal (z-score)” value (GalNAc(b1-3)GlcNAc)?
Answer: -0.485

Question: And the “glycan array binding signal (z-score)” value (GalNAc(b1-4)Gal(b1-4)Glc)?
Answer: 1.77

Question: What about the “glycan array binding signal (z-score)” value (GalNAc(b1-4)GlcNAc) of the same binder?
Answer: -0.879

Question: And the “glycan array binding signal (z-score)” value [6]?
Answer: -0.949

Question: And the “glycan array binding signal (z-score)” value [7]?
Answer: -0.514

Question: What about the “glycan array binding signal (z-score)” value [8] of the same binder?
Answer: -0.579

Question: What about the “glycan array binding signal (z-score)” value (GalNAc(b1-4)GlcNAc6S) of the same binder?
Answer: -0.365

Question: And the “glycan array binding signal (z-score)” value (GalNAc(b1-6)GalNAc)?
Answer: -0.938

Question: And the “glycan array binding signal (z-score)” value (GalNAc3S(b1-4)GlcNAc)?
Answer: -0.792

Question: What about the “glycan array binding signal (z-score)” value (GalNAc3S(b1-4)GlcNAc3S) of the same binder?
Answer: -0.169

Question: What about the “glycan array binding signal (z-score)” value [9] of the same binder?
Answer: -0.621

Question: What about the “glycan array binding signal (z-score)” value (GalNAc4S6S(b1-4)GlcNAc) of the same binder?
Answer: 0.536

Question: And the “glycan array binding signal (z-score)” value (GalNAc6S(b1-4)GlcNAc)?
Answer: 0.047

Question: What about the “glycan array binding signal (z-score)” value (Glc(a1-4)Glc) of the same binder?
Answer: 0.093

Question: And the “glycan array binding signal (z-score)” value [10]?
Answer: -1.09

Question: And the “glycan array binding signal (z-score)” value (Glc(a1-6)Glc(a1-6)Glc)?
Answer: 0.058

Question: And the “glycan array binding signal (z-score)” value [11]?
Answer: 0.155

Question: And the “glycan array binding signal (z-score)” value (Glc(b1-4)Glc)?
Answer: 0.15

Question: What about the “glycan array binding signal (z-score)” value (Glc(b1-6)Glc) of the same binder?
Answer: 1.72
